Record: PubChem BioAssay AID504808 (Drosophila RNAi Screening Center, 2011)
The screen tested about 21,000 reagents; shown is an unselected part of those that have a named target and a result. In the full data, 18 (0.084%) are marked active. 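Raw counts without plate normalisation, one of two replicates; the ratio scores behind the calls were not deposited.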 A number with no mark means an inactive call. A plus sign joins genes that one reagent is predicted to hit. No sequences are given here. Not given: the amount of reagent, the time to read-out.

Purpose: 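Fly genes required to hold E2F transcription in check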 (primary screen)
System: Drosophila S2 cells
Reagents: long dsRNA against Drosophila genes
Read-out: 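Dual luciferase plate measurements; E2F-specific signal taken as firefly over Renilla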
Direction: E2F firefly: higher = more E2F reporter activity; Renilla normaliser: higher = more normaliser reporter signal
Call rule: 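a knock-down counted as active when the firefly/Renilla E2F signal rose above 50%, a threshold chosen arbitrarily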

predicted target | dsRNA | E2F firefly, rep 1 | Renilla normaliser, rep 1
CG12486 (retired record) | DRSC09888 | 1.64e5 | 7574
CG15572 | DRSC18060 | 1.16e5 | 6103
CG15143 | DRSC02444 | 1.10e5 | 5244
chrb | DRSC11335 | 77291 | 3787
CG9775 | DRSC12330 | 77126 | 3514
CG3546 | DRSC18308 | 82068 | 5145
CG17650 | DRSC00510 | 1.59e5 | 5501
Ir94g | DRSC15231 | 1.05e5 | 5770
GstD6 | DRSC16687 | 1.48e5 | 7155
Atet | DRSC00263 | 1.55e5 | 4470
Acsl | DRSC07252 | 2261 | 240
CG14820 | DRSC10191 | 89938 | 3741
casp | DRSC07164 | 67018 | 3573
ImpL2 | DRSC08666 | 83480 | 4353
CG5641 | DRSC15852 | 80782 | 3666
CG9498 | DRSC03235 | 1.43e5 | 5192
HLH3B | DRSC18669 | 1.26e5 | 6144
SLIRP1 + anox | DRSC20542 | 1.62e5 | 5411
lbl | DRSC16986 | 1.54e5 | 8500
CG4133 | DRSC00639 | 1.47e5 | 5272
CG7656 | DRSC10900 | 81101 | 3495
Klp64D | DRSC11204 | 92388 | 3683
CG9855 | DRSC12344 | 73633 | 3403
RpL27 | DRSC15638 | 50014 | 5626
RnrL | DRSC03413 | 54487 | 189
Pgi | DRSC07507 | 2617 | 208
alpha-Est8 | DRSC12620 | 1.36e5 | 6379
CG34029 | DRSC03909 | 1.29e5 | 4226
gce | DRSC19613 | 1.42e5 | 6704
gce | DRSC19974 | 1.16e5 | 5713
CG13121 (retired record) | DRSC02217 | 1.43e5 | 5738
Pburs | DRSC02483 | 99754 | 4180
Or22a | DRSC00764 | 1.61e5 | 6373
CG6443 | DRSC02958 | 75109 | 3236
Lpt | DRSC04291 | 1.01e5 | 4280
Lpt | DRSC04515 | 78482 | 2914
CG13954 | DRSC06442 | 1.40e5 | 4590
WDR79 | DRSC03159 | 97645 | 3619
Rnb | DRSC16325 | 1706 | 964
Polr2F | DRSC12366 | 72756 | 6431
CG14932 | DRSC02414 | 1.47e5 | 4560
CG8329 | DRSC10978 | 70759 | 4085
CG33017 | DRSC06573 | 1.46e5 | 4919
CG33017 | DRSC06574 | 1.47e5 | 5850
Vps16B | DRSC15304 | 1.29e5 | 6775
CG30259 | DRSC04164 | 1.08e5 | 4478
CG30259 | DRSC04165 | 98046 | 4270
prage | DRSC17957 | 87624 | 4322
prage | DRSC17958 | 1546 | 868
prage | DRSC18490 | 96244 | 5705
prage | DRSC18497 | 1.25e5 | 5864
shf | DRSC18283 | 1.31e5 | 6160
Rad9 | DRSC11263 | 73268 | 3716
Cpr | DRSC03293 | 91545 | 3501
Ucp4A | DRSC19996 | 2.54e5 | 7518
CG10887 | DRSC14277 | 1.22e5 | 6756
CG6592 | DRSC10669 | 92233 | 3559
GatC + PolG2 | DRSC03312 | 79652 | 3390
elgi | DRSC10242 | 78304 | 3687
CG11617 | DRSC00321 | 1.54e5 | 5628
CG42262 (retired record) | DRSC17628 | 74122 | 2661
CG42262 (retired record) | DRSC17974 | 1.29e5 | 6065
CG10555 | DRSC17748 | 78863 | 4292
KCNQ | DRSC06121 | 1.42e5 | 5240
KCNQ | DRSC06230 | 1.48e5 | 5077
GC2 | DRSC14476 | 1.27e5 | 6481
Acp26Ab | DRSC01856 | 1.45e5 | 5371
CG31816 | DRSC01547 | 1.42e5 | 5716
Pif1 | DRSC00582 | 85136 | 3608
CG30383 | DRSC05062 | 1.39e5 | 5952
ich | DRSC12715 | 67837 | 4723
ich | DRSC14448 | 1.26e5 | 5850
CG10587 | DRSC11627 | 1.45e5 | 7031
CRMP | DRSC12073 | 65781 | 4205
CRMP | DRSC12345 | 67967 | 3578
CG10600 | DRSC02074 | 70482 | 3706
CG3280 (retired record) | DRSC10356 | 93751 | 4917
Dip-B | DRSC16466 | 69263 | 3134
Jon65Ai | DRSC09731 | 94362 | 3577
CG15059 | DRSC19633 | 2.46e5 | 6734
CG10194 | DRSC02025 | 77757 | 3813
Dyrk3 | DRSC21055 | 71720 | 4530
Gpo2 | DRSC06822 | 1.17e5 | 3931
nero | DRSC15432 | 1560 | 808
